Data as given in PubChem BioAssay AID1259308 (NCATS, 2017)
Aim: 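Candidate targets for better recombinant protein yield in mammalian cells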 (primary screen). System: human HEK293 embryonic kidney cells stably expressing firefly luciferase (HEK-CMV-Luc2-Hygro). Reagents: single siRNA against human genes, 0.8 pmol siRNA per well. Time to read-out: 72 h. Detection: 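Luciferase light (ONE-Glo) measured on one replicate plate set and viability (CellTiter-Glo) on the other, scaled to a negative control siRNA, with robust z-scores and luciferase per cell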. Direction: total luciferase, z-score and total luciferase, % of control: higher = more reporter protein produced; luciferase per cell, z-score: higher = more reporter output per viable cell; viable cells, % of control: higher = more viable cells. Call rule: 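An siRNA counts as active if its total luciferase robust z-score exceeds 3; genes with two or more such siRNAs out of three were retested with fresh siRNAs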. Meaning of the calls: active = raised luciferase; inactive = no rise.
Here is a random part of about 59,000 reagents. In the full data, about 1,510 (2.6%) were called active. 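Calls use total luciferase alone and ignore viability, so some active siRNAs may act by altering cell number.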 Unmarked entries are inactive. Reagents against one gene are numbered here.

Target gene	siRNA no.	total luciferase, z-score	total luciferase, % of control	luciferase per cell, z-score	viable cells, % of control
TRIML1	1	-1.03	61.4	-1.2	94.2
TRIML1	2	1.09	104	0.475	102
TRIML1	3	0.372	89.3	0.235	93.8
FAM120AOS	1	0.475	91.3	1.57	67.5
FAM120AOS	2	0.106	84	0.288	87
FAM120AOS	3	0.172	85.3	1.4	66
EXOC3	1	0.86	99	0.192	105
EXOC3	2	-0.289	76.1	-0.198	89.6
EXOC3	3	0.0704	83.3	-0.592	109
LOC400870 (retired record)	1	0.612	94.1	0.458	93.2
LOC400870 (retired record)	2	0.138	84.6	0.672	79.2
LOC400870 (retired record)	3	-0.227	77.4	-0.404	96.2
MAIP1	1	0.149	84.8	1.46	64.6
MAIP1	2	-0.282	76.3	-0.47	96.5
MAIP1	3	0.418	90.2	0.00895	101
PLEKHF1	1	3.52 (active)	152	3.18	73.4
PLEKHF1	2	-1.76	46.8	-2.4	98.4
PLEKHF1	3	2.16	125	1.62	91.1
RALGAPA2	1	-0.0936	80	-0.102	91.9
RALGAPA2	2	-0.706	67.9	-1.38	109
RALGAPA2	3	-0.482	72.3	-0.862	101
SPINK13	1	1.65	115	0.424	115
SPINK13	2	-0.221	77.5	-0.482	98.3
SPINK13	3	-0.129	79.3	1.09	66.6
